Reference: paper PMC5065183

T1: CdTlo1-6His-3Flag (C. dubliniensis Tlo1, Mediator Tail subunit Med2 ortholog) (C. dubliniensis) (UniProt B9WKI2)
T1 sequence: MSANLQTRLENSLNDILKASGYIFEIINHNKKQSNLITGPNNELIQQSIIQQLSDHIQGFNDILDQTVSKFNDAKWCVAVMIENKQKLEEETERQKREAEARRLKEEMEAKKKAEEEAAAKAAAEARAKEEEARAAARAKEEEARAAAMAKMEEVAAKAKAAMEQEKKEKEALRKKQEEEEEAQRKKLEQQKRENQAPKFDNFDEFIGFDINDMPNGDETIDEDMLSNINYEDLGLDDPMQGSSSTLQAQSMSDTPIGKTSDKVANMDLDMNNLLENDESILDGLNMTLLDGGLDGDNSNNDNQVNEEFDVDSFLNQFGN


Legend:
[1] = target: T1, CdTlo1-6His-3Flag (C. dubliniensis Tlo1, Mediator Tail subunit Med2 ortholog) (C. dubliniensis); experiment: co-IP; affinity purification of C-terminal 6His3FLAG tagged Tlo variants from C. dubliniensis (as ref. 26, TALON step omitted; cell lysate, heparin, Flag); anti-Med1 immunoblot of the purified sample
[2] = target: C. dubliniensis Med1 (Mediator Middle module subunit) (C. dubliniensis (endogenous in C. dubliniensis)); experiment: co-IP; immunodepletion with anti-Med1 antibody on Protein G Dynabeads, 2 hours at 4°C; sample: Mediator complex purified through 6His3FLAG-tagged Tlo1; anti-HA antibody as control

Row | binding [1] | binding [2] | Molecule
1 | binds |  | C. dubliniensis Med1 (Mediator Middle module subunit)
2 |  | binds | CdTlo1-6His-3Flag (C. dubliniensis Tlo1, Mediator Tail subunit Med2 ortholog) (protein, UniProt B9WKI2 1-320) MSANLQTRLENSLNDILKASGYIFEIINHNKKQSNLITGPNNELIQQSIIQQLSDHIQGFNDILDQTVSKFNDAKWCVAVMIENKQKLEEETERQKREAEARRLKEEMEAKKKAEEEAAAKAAAEARAKEEEARAAARAKEEEARAAAMAKMEEVAAKAKAAMEQEKKEKEALRKKQEEEEEAQRKKLEQQKRENQAPKFDNFDEFIGFDINDMPNGDETIDEDMLSNINYEDLGLDDPMQGSSSTLQAQSMSDTPIGKTSDKVANMDLDMNNLLENDESILDGLNMTLLDGGLDGDNSNNDNQVNEEFDVDSFLNQFGN

These are yes or no findings as the source states them, for the method shown. In cells and extracts the contact can be indirect. Binding can be weak; no strength is given. Tags and fused reporters may be left off the sequences shown.
